The source of these data is US10087404B2, “Biological corrosion inhibitor for metals” (KURARAY CO., LTD., priority 2014, dated 2018).

The data set relates to activated sludge. Put plainly: Biodegradability test (OECD test guideline 301C, JIS K 6950) with activated sludge. To be noted: high concentration group (100 ppm).

For `Nc1ccccc1` [aniline], the “biodegradation rate in 28 days” value (25° C., activated sludge 30 ppm) is reported as not below 60%. The degradability determination entry (28 days) is recorded as “highly degradable (When the biodegradation rate was 60% or more, the substance was determined as a highly degradable substance)”.
